In assay [1] the target is PD‐L1‐HA (programmed death‐ligand 1, HA-tagged), expressed in HEK293T (UniProt Q9NZQ7). Briefly: co-IP; HEK293T transfected with PD‐L1‐HA and ABCB1 plasmid; lysate (1% NP‐40, 150 mM NaCl, pH 7.4) incubated with anti‐HA affinity beads at 4 °C overnight.
In assay [2] the target is PD‐L1‐HA (programmed death‐ligand 1, HA-tagged), expressed in NCI‐H460 (UniProt Q9NZQ7). Briefly: co-IP; NCI‐H460 cells transfected with PD‐L1‐HA plasmid for 24 h, then treated with zosuquidar and chloroquine (CQ); lysates immunoprecipitated with anti‐HA affinity beads; blots for SARs.
The target in assay [3] is ABCB1 (ATP binding cassette subfamily B member 1), endogenous in NCI‐H460 (human (endogenous in NCI‐H460)) (UniProt P08183). The assay is described as follows: co-IP; NCI‐H460 lysate (1% NP‐40, 150 mM NaCl, pH 7.4) immunoprecipitated with ABCB1 antibody, protein A/G beads; untreated, or treated with zosuquidar, tariquidar or elacridar in the presence of CQ for 12 h.
Assay [4] deals with PD‐L1 (programmed death‐ligand 1), endogenous in NCI‐H460 (human (endogenous in NCI‐H460)) (UniProt Q9NZQ7). Briefly: co-IP; NCI‐H460 cells treated with zosuquidar and CQ (20 x 10^-6 M) for 12 h; lysates (1% NP‐40, 150 mM NaCl, pH 7.4) immunoprecipitated with PD‐L1 antibody, protein A/G beads.
For assay [5] the target is unchanged. The assay is described as follows: co-IP; NCI‐H460 cells transfected with vector or ABCB1 plasmid in the presence of CQ for 12 h; lysates immunoprecipitated with PD‐L1 antibody.

The chains behind the UniProt entries cited, without tags or fusion partners.
UniProt P08183: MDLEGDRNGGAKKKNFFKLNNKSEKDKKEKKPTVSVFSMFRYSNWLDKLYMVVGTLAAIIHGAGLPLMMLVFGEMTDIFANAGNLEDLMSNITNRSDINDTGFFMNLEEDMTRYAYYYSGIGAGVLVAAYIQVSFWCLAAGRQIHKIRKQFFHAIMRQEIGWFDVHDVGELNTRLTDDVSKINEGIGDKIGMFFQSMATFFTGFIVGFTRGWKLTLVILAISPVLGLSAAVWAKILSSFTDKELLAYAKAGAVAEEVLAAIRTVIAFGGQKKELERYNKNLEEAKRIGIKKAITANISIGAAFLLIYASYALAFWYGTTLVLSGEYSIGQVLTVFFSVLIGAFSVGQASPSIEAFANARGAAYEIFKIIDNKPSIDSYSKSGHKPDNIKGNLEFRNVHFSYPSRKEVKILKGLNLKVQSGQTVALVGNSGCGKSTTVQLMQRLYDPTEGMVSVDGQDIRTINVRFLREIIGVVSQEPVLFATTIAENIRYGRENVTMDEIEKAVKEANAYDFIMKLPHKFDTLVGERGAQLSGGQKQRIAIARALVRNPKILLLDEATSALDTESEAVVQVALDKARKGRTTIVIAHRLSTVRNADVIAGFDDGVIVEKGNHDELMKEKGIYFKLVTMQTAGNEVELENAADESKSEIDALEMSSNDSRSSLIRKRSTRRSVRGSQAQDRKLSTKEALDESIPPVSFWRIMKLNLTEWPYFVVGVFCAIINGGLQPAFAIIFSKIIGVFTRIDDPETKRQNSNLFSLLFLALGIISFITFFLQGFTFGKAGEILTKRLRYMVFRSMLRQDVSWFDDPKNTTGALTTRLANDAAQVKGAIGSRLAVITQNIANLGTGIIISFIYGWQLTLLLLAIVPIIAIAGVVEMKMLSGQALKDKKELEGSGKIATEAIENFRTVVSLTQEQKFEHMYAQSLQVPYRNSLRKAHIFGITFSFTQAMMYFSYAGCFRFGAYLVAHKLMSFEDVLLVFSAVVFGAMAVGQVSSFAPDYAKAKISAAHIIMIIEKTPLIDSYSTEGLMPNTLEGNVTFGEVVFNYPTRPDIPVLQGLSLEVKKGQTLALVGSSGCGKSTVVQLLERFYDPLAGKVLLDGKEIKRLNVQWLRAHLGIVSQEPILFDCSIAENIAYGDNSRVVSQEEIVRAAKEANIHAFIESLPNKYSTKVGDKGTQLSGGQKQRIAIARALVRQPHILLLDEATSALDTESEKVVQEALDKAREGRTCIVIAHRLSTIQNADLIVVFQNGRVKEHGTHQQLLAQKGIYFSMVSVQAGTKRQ

Results are given in words; binding and its absence hold for the method and conditions named. Binding seen in cells or lysates may run through a third protein. Some binding calls cover weakened binding; strength is not graded here.

The values below come from PMC11538701.

In the case of “ABCB1 (ATP binding cassette subfamily B member 1), from plasmid in HEK293T (from UniProt P08183 1-1280)”, the binding result in assay [1] is “binds”. For the molecule “SQSTM1 (sequestosome 1), endogenous in NCI‐H460 (from UniProt Q13501 1-440)”, the binding result in assay [2] is recorded as “binds”. In the case of “PD‐L1 (programmed death‐ligand 1), endogenous in NCI‐H460 (from UniProt Q9NZQ7 19-290)”, the binding result in assay [3] is “binds”.

B1: SEC24A, a core subunit of COPII, endogenous in NCI‐H460 (protein, UniProt O95486 1-1093)
chain: MSQPGIPASGGAPASLQAQNGAALASGSPYTNGPVQNALLSSQESVSQGYNFQLPGSYPHPIPAKTLNPVSGQSNYGGSQGSGQTLNRPPVASNPVTPSLHSGPAPRMPLPASQNPATTPMPSSSFLPEANLPPPLNWQYNYPSTASQTNHCPRASSQPTVSGNTSLTTNHQYVSSGYPSLQNSFIKSGPSVPPLVNPPLPTTFQPGAPHGPPPAGGPPPVRALTPLTSSYRDVPQPLFNSAVNQEGITSNTNNGSMVVHSSYDEIEGGGLLATPQLTNKNPKMSRSVGYSYPSLPPGYQNTTPPGATGVPPSSLNYPSGPQAFTQTPLGANHLTTSMSGLSLQPEGLRVVNLLQERNMLPSTPLKPPVPNLHEDIQKLNCNPELFRCTLTSIPQTQALLNKAKLPLGLLLHPFKDLVQLPVVTSSTIVRCRSCRTYINPFVSFLDQRRWKCNLCYRVNDVPEEFLYNPLTRVYGEPHRRPEVQNATIEFMAPSEYMLRPPQPPVYLFVFDVSHNAVETGYLNSVCQSLLDNLDLLPGNTRTKIGFITFDSTIHFYGLQESLSQPQMLIVSDIEDVFIPMPENLLVNLNESKELVQDLLKTLPQMFTKTLETQSALGPALQAAFKLMSPTGGRMSVFQTQLPTLGVGALKPREEPNHRSSAKDIHMTPSTDFYKKLALDCSGQQVAVDLFLLSGQYSDLASLGCISRYSAGSVYYYPSYHHQHNPVQVQKLQKELQRYLTRKIGFEAVMRIRCTKGLSIHTFHGNFFVRSTDLLSLPNVNPDAGYAVQMSVEESLTDTQLVSFQSALLYTSSKGERRIRVHTLCLPVVSTLNDVFLGADVQAISGLLANMAVDRSMTASLSDARDALVNAVIDSLSAYRSSVLSNQQPGLMVPFSLRLFPLFVLALLKQKSFQTGTNARLDERIFAMCQVKNQPLVYLMLTTHPSLYRVDNLSDEGALNISDRTIPQPPILQLSVEKLSRDGAFLMDAGSVLMLWVGKNCTQNFLSQVLGVQNYASIPQPMTDLPELDTPESARIIAFISWLREQRPFFPILYVIRDESPMKANFLQNMIEDRTESALSYYEFLLHIQQQVNK
For B1, the binding entry in assay [4] and in assay [5] was “binds” each time.
